Data source: PubChem BioAssay AID1259266 (Sanger Institute, 2017)
The whole screen tested 794 reagents; this is an unselected part. Of all reagents, 16 (2%) are marked active. 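Calls reflect knock-down alone, not drug synergy; viability seems capped at 1 and z-scores at 0.585.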 Unmarked entries are inactive. The record does not give: the amount of reagent, the time to read-out.

Test: 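Find knock-downs that kill LS123 cells or act with anchor drugs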 (primary screen)
Cell system: LS123 human colorectal cancer cells
Knock-down reagent: siRNA pool against human genes
Treatment: anchor drugs BYL719 (1 µM), cetuximab (5 µg/ml) or trametinib (10 nM), each chosen to barely slow growth alone; DMSO vehicle as the drug-free arm
Measurement: 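Replicate-averaged viability scaled to non-targeting pools, robust z-score for siRNA alone, and a synergy score per anchor drug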
Scale: robust z-score, knock-down alone: higher = more cells surviving after knock-down; viability, knock-down alone: higher = more viable cells; synergy score with trametinib and synergy score with BYL719 and synergy score with cetuximab: higher = stronger synthetic lethality with drug
Hit rule: 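a knock-down counts as essential if its z-score without drug is under -3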
Meaning of the calls: active = essential (knock-down alone cuts viability); inactive = no change

Gene,PubChem SID,"robust z-score, knock-down alone","viability, knock-down alone (fraction of control)",synergy score with trametinib,synergy score with BYL719,synergy score with cetuximab
ULK3,SID152148646,0.585,1,-0.131,-0.149,-0.0122
N4BP2,SID152151934,0.585,1,-0.0157,-0.128,-0.0122
FYN,SID135620621,0.585,1,0.00597,-0.0654,-0.0122
NAGK,SID135621243,-2.37,0.824,-0.166,-0.0887,-0.000234
FLT1,SID152149290,0.585,1,-0.111,-0.159,-0.0122
AK7,SID152153423,0.0762,0.97,-0.175,0.0144,-0.00684
DYRK4,SID56478859,0.585,1,-0.0178,-0.0757,0.0211
STYK1,SID56478493,-3.42 (active),0.762,-0.052,-0.0793,0.00834
EIF2AK2,SID56478676,0.585,1,-0.108,-0.159,-0.0122
TLK2,SID56479057,0.585,1,-0.136,-0.159,-0.0122
CDK12,SID152151382,-0.0327,0.963,-0.0885,-0.131,-0.0229
PRKAG3,SID56479232,-1.93,0.851,-0.00453,-0.0184,0.106
TAB1,SID135620883,0.585,1,-0.114,-0.155,-0.0122
PDK4,SID152155412,0.585,1,-0.0128,0.0239,0.0346
NTRK3,SID135620627,0.585,1,-0.186,-0.159,-0.0122
DGKD,SID56479091,0.585,1,-0.13,-0.159,-0.0122
SKAP1,SID152154182,0.585,1,-0.131,-0.159,-0.0122
TSSK1B,SID56478967,0.585,1,-0.168,-0.159,-0.0122
PKLR,SID152148534,0.585,1,-0.0652,-0.159,-0.0122
BLK,SID56478485,0.585,1,-0.066,-0.0885,-0.0122

Ordered by “viability, knock-down alone (fraction of control)” (highest first): some entries from above.
Gene,PubChem SID,"robust z-score, knock-down alone","viability, knock-down alone (fraction of control)",synergy score with trametinib,synergy score with BYL719,synergy score with cetuximab
PKLR,SID152148534,0.585,1,-0.0652,-0.159,-0.0122
BLK,SID56478485,0.585,1,-0.066,-0.0885,-0.0122
